# According to US7351531B2, “Molecules capable of binding to telomere and the like and method with the use of the same” (Japan Science and Technology Corporation, priority 2001, dated 2008):
# Entries after “also recorded” stand apart in the source; their conditions may differ.
# System: human telomere 22-mer oligonucleotide (quadraplex structure)
# Assay: CD spectrometry of human telomere 22-mer oligonucleotide with naphthyridine dimer
# Conditions: 0 to 50 μM, 7° C., FIG. 5; listed as naphthyridine dimer
# Source text: The telomere structure change to be caused by the addition of the compound of formula (III) (naphthyridine dimer) to the structure was investigated through CD spectrometry. In FIG. 5, 1 indicates the CD spectrum of human telomere alone, and 2 indicates the CD spectrum of human telomere with naphthyridine dimer added thereto. The vertical axis indicates the angle θ (degree·cm^2·dmol^−1); and the horizontal axis indicates the wavelength (nm).
# A solution of a 22-mer oligonucleotide having the following base sequence: 5′-[…]3′ (SEQ ID NO: 9) in a sodium cacodylate buffer (10 mM, pH 7.0, NaCl 100 mM) was heated at 70° C. for 5 minutes, and then gradually cooled so that the oligomer could form a quadraplex structure (see Structure, 263, 1 (1993)). A varying concentration (0 to 50 μM) of a naphthyridine dimer was added to the resulting solution, and then left at 7° C. for 5 minutes, and the circular dichroic spectrum (CD spectrum) of the sample was measured at that temperature.
structure (smiles),measurement,value
"Cc1ccc2ccc(NC(=O)CCNCCC(=O)Nc3ccc4ccc(C)nc4n3)nc2n1 [compound of formula (III), dinaphthyridinamide]",change of CD spectrum of human telomere on addition,significantly changes the spectral pattern; also recorded: greatly varied
